Results: PMC3323580
Results are given in words; binding and its absence hold for the method and conditions named.

The chains behind the UniProt entries cited, without tags or fusion partners. Where a name states a change or a piece, a line headed by the entry shows the natural chain unless it says otherwise. A line that says so, or that is headed by a name, gives the form on record, which may keep a tag or linker.
CR1 20–23, complement receptor-type 1 CCPs 20–23 (P17927, form named): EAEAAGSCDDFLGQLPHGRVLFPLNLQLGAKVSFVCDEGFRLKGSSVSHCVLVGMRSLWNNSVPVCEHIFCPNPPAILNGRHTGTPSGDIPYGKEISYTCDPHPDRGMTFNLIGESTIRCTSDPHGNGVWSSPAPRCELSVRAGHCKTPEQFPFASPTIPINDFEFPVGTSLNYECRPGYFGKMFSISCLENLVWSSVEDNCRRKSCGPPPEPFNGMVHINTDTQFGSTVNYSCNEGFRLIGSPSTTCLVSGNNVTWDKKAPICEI

Biological target: CR1 20–23, complement receptor-type 1 CCPs 20–23 (human) (UniProt P17927)
Assay: SAXS; CR1 20–23 at 1.9 and 3.3 mg/ml, 10°C, 50 mM potassium phosphate pH 7.4; excluded volume from the DAMMIF ab initio model; both purified

## CR1 20–23, complement receptor-type 1 CCPs 20–23 (from UniProt P17927 1257-1516) (domain or fragment)
  binding: no binding (tested: 1.9 and 3.3 mg.ml^−1)
